Legend:
in vitro = conditions: human, Caco-2
[1] = MTT viability assay on SMI microtissues after drug exposure; conditions: human, SMI (small intestinal) microtissues

Papp at 2 h, 10 μM (in vitro): 0.3 ×10⁻⁶ cm/s
SMILES: CC(C)NCC(O)COc1ccc(CC(N)=O)cc1 (stereo not shown) [Atenolol]
viability at 96 h, 1 µM [1]: 108%
viability at 96 h, 10 µM [1]: 107%
viability at 96 h, 100 µM [1]: 102%

— publication PMC6599640 (Pharmaceutical research, 2018)
